In PubChem BioAssay AID504834 (National Center for Advancing Translational Sciences (NCATS), 2011):
Among all 320,000 compounds or so, about 22,000 (6.9%) were called active. The shares of active, inactive and inconclusive entries below differ from those in the screen. The call rests on the fitted dose curve; in most records, active means well fitted inhibition curve with a large enough effect; inconclusive means small, poorly fitted or top-dose-only effect, or another doubt; inactive means no such curve, though single readings can be large or run the other way. Where the call is inconclusive, the potency comes from a doubtful curve fit.

Assay: Primary qHTS for delayed death inhibitors of the malarial parasite plastid, 96 hour incubation
Conditions: P. falciparum luciferase reporter growth; series mostly up to 28.7 µM; activity change, negative = inhibition: at the top concentration
Method in brief: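 Infected RBCs, 2% Hct / 0.05% parasitemia final; luciferase-reporter P. falciparum; cpd 96 h, 37 C, 5% CO2; luciferase detection reagent; luminescence.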
On the % scale 0 is the no-effect control and ±100 the full control effect; potency means the concentration at half of the fitted maximal effect.

SMILES	activity change, negative = inhibition	Potency
COc1ccc(CNC(=O)[C@H](Cc2c[nH]c3ccccc23)NC(C)=O)cc1OC	inactive: 24.8%	
CC1(C)Oc2ccc3ccc(=O)oc3c2/C(=C/NC2CCCCC2)C1=O		inconclusive: 18.5 µM [inhibitor, single point]
CN1CCN(C(=S)Nc2cccc(C(F)(F)F)c2)CC1		inconclusive: 10.4 µM [inhibitor, partial curve, poor fit]
C=C(C)COc1ccc(-c2[nH]ncc2Oc2ccccc2OC)c(O)c1	inactive: 11.2%	
O=C(NNc1c(Cl)cccc1Cl)c1sccc1Cl		inconclusive: 9.28 µM [inhibitor, partial curve]
CCCCn1nc(C(=O)Nc2ccc(-n3cnnn3)cc2)c2ccccc2c1=O		inconclusive: 10.4 µM [inhibitor, single point]
CC1=CC(=C2C(=O)c3ccccc3C2=O)C=C(C)N1Cc1ccco1		inconclusive: 6.57 µM [inhibitor, partial curve, poor fit]
CC1=CC(C)(C)N(S(=O)(=O)c2ccc(F)cc2)c2ccc(C)cc21		active: 14.7 µM
CC1CCN(c2ncnc3ccccc23)CC1	inactive: 3.29%	
CC(=O)Oc1ccc(Nc2ccccc2)cc1	inactive: -22.6%	
CC(=C/c1ccccc1)/C=N/Nc1nc(N2CCCCC2)nc(N2CCCCC2)n1		inconclusive: 18.5 µM [inhibitor, single point]
CS(=O)(=O)c1ccccc1COC(=O)Nc1ccc(Cl)cc1	inactive: 46.5%	
CC(C)n1c(SCc2ccc(Cl)cc2)nc2c1c(=O)[nH]c(=O)n2C		active: 11.7 µM
Cc1cccc(NC(=O)c2cccc(S(=O)(=O)N3CCCC3)c2)n1		inconclusive: 9.28 µM [inhibitor, partial curve]
C=CCSc1nc2sc(C)c(C)c2c(=O)n1N	inactive: 15.6%	
COc1ccc(C(OCC(O)CN(C)C2CCCCC2)c2ccc(OC)cc2)cc1 (centres undefined)		inconclusive: 18.5 µM [inhibitor, single point]
CCC(NC(=O)CCc1c(C)c2cc3c(-c4ccccc4)coc3cc2oc1=O)C(=O)O (centres undefined)	inactive: 3.08%	
O=C(COc1ccc(Br)cc1)NCCCNC(=O)c1ccncc1		inconclusive: 18.5 µM [inhibitor, single point]
Cc1ccc2nc(SCC(=O)Nc3cc(C(F)(F)F)ccc3N3CCOCC3)[nH]c2c1		inconclusive: 7.38 µM [inhibitor, partial curve, poor fit]
Cc1noc(NS(=O)(=O)c2ccc(NC(=O)c3ccc(Cl)c(S(=O)(=O)N(C)c4ccccc4)c3)cc2)c1C		inconclusive: 10.4 µM [inhibitor, partial curve, poor fit]
CCSC1=C(C#N)C(c2cccs2)C(C(=O)OC)=C(C)N1 (centres undefined)	inactive: -39.3%	
O=c1c2ccccc2ncn1CCCCOc1ccccc1F		inconclusive: 2.08 µM [inhibitor, full curve, poor fit]

In another format: 3 of the compounds above.
SMILES | activity change, negative = inhibition | Potency
CC1CCN(c2ncnc3ccccc23)CC1 | inactive: 3.29% | 
CS(=O)(=O)c1ccccc1COC(=O)Nc1ccc(Cl)cc1 | inactive: 46.5% | 
CCSC1=C(C#N)C(c2cccs2)C(C(=O)OC)=C(C)N1 (centres undefined) | inactive: -39.3% | 

(listing goes on)

SMILES	activity change, negative = inhibition	Potency
COc1ccc(C(CNC(=O)c2ccc(OCC3CCCO3)cc2)N2CCOCC2)cc1 (centres undefined)		inconclusive: 9.28 µM [inhibitor, single point]
COc1ccc(CNC(=O)C(c2ccncc2)N(C(=O)Cc2cccs2)c2ccc(C)cc2)cc1 (centres undefined)		inconclusive: 13.1 µM [inhibitor, single point]
Cc1sc(NC(=O)CN(Cc2ccccc2)C(=O)C(C)C)c(C(N)=O)c1C		inconclusive: 10.4 µM [inhibitor, single point]
CCOc1ccc(NC(=O)C(=O)N/N=C\c2ccc(CNS(=O)(=O)c3ccccc3)o2)cc1		inconclusive: 18.5 µM [inhibitor, single point]
S=C1NC[C@H](Cc2cccc3ccccc23)N1CC1CCCCC1		inconclusive: 4.15 µM [inhibitor, single point]
COc1ccc(NC(=O)CCOc2ccc(C)cc2)cc1S(=O)(=O)N1CCCCC1	inactive: -23.2%	
NS(=O)(=O)c1ccc(CCNC(=O)c2cccc(S(=O)(=O)N3CCCC3)c2)cc1		inconclusive: 4.15 µM [inhibitor, single point]
COc1ccc(N2CCN(C(=O)c3cc(=O)c4ccc(C)cc4o3)CC2)cc1		inconclusive: 18.5 µM [inhibitor, single point]
NC1=NC(=O)/C(=C/c2ccccc2OS(=O)(=O)c2ccc3ccccc3c2)S1		inconclusive: 13.1 µM [inhibitor, single point]
CCN(CC)CCCNC(=O)C1c2ccccc2C(=O)N(C)C1c1ccc(OC)cc1 (centres undefined)		inconclusive: 18.5 µM [inhibitor, single point]
CC(=O)N1CCOc2ccc(S(=O)(=O)N3CCC(C(=O)Nc4ccc(C)c(C)c4)CC3)cc21		inconclusive: 18.5 µM [inhibitor, single point]
COCCNc1cc(C)nc2ccccc12	inactive: 60.2%	
CCc1nc(SCC(=O)Nc2cc(C)on2)c2c(C)c(C)sc2n1		inconclusive: 9.28 µM [inhibitor, partial curve, poor fit]
Cc1ccc(S(=O)(=O)NNC(=O)c2ccncc2)cc1		inconclusive: 20.8 µM [inhibitor, partial curve, poor fit]
CCOC(=O)N1CCN(C(=O)CN2C(=O)CC(C)(C)S(=O)(=O)c3ccccc32)CC1		active: 3.29 µM
Cc1ccc(C(C)C)c(OCCCN(C)Cc2ccccc2)c1		inconclusive: 18.5 µM [inhibitor, single point]
COc1ccccc1CNc1ncccc1[N+](=O)[O-]		inconclusive: 10.4 µM [inhibitor, partial curve]
CCN(CC)S(=O)(=O)c1ccc(C(=O)Nc2ccc3c(c2)OCO3)cc1		inconclusive: 2.62 µM [inhibitor, partial curve, poor fit]
CCc1cccc(C)c1NC(=O)COC(=O)c1c2c(nc3ccccc13)/C(=C\c1cccs1)CCC2		active: 10.4 µM
N#CCCn1cc(C(=O)N2CCOCC2)c(-c2ccc3c(c2)OCCO3)n1	inactive: 72.9%	
CN1CCc2cccc(Cl)c2CC1		inconclusive: 0.0029 µM [inhibitor, full curve, poor fit]
Cc1ccccc1Cn1cnc2c([N+](=O)[O-])c(C)c(C)cc21		inconclusive: 18.5 µM [inhibitor, partial curve, poor fit]
